Test results reported in PubChem BioAssay AID2685 (National Center for Advancing Translational Sciences (NCATS), 2010).
The list shows a part of the results. Further columns of the screen follow, without active or inactive calls. Compounds called inactive in the main read-out are mostly missing here. Words in brackets tell the shape of the fitted curve; partial curves, single points and poor fits give uncertain potencies.

Experiment: qHTS Assay for Lipid Storage Modulators in Drosophila S3 Cells;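 on cell number change: cells counted by Cell Tracker Red CMTPX staining in the red channel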
Details: BODIPY lipid droplet fluorescence, 18-24 h; for cell number change: measured here: cell count max response, cells fed with added oleic acid
In short: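 Drosophila S3 cells got compounds at several concentrations plus oleic acid (400 uM solution). Laser-scanning cytometry with 488 nm excitation read lipid droplets at 500-530 nm and cells at 575-640 nm. Percent activity was relative to 20 uM Triacsin C.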

[1] = measured here: cell number channel AC50, cells fed with added oleic acid
[2] = measured here: lipid fluorescence (Fed channel) AC50, cells fed with added oleic acid

| Structure (SMILES) | cell number change [%] | AC50 [1] | AC50 [2] |
| --- | --- | --- | --- |
| COc1ccc(-c2nc(-c3ccccc3)c(-c3cc([N+](=O)[O-])ccc3C)[nH]2)cc1O | -54.2 | 25.9 µM [falling, partial curve] | 29.1 µM [falling, partial curve] |
| CCN1CCN(C(c2ccccc2F)c2nnnn2Cc2ccc3c(c2)OCO3)CC1 (stereo unspecified) | 38.5 | 32.6 µM [rising, single point] | 29.1 µM [falling, partial curve] |
| CC1CCN(S(=O)(=O)c2nnc(NC(=O)c3cccc([N+](=O)[O-])c3)s2)CC1 | 19.8 |  | 0.58 µM [falling, single point] |
| CCc1ccccc1OC[C@@H](O)CN[C@H]1CCCc2ccccc21 | -65.3 |  | 9.2 µM [falling, partial curve] |
| COc1ccc(C(=O)OCC(=O)c2cc(OC)ccc2OC)c(OC)c1 | -6.3 |  | 8.2 µM [rising, partial curve] |
| Cc1cccc(NC(=O)CN2C(=O)NC3(CCCC3)C2=O)n1 | -0.423 |  | 6.51 µM [falling, single point] |
| CCN(c1ccccc1)S(=O)(=O)c1cccc(C(=O)NCCOc2ccccc2OC)c1 | -100 | 29.1 µM [falling, partial curve, poor fit] |  |
| COc1cc(SC)ccc1C(=O)Nc1ccc(S(=O)(=O)N2CCCC2)cc1 | 56.7 | 14.6 µM [rising, partial curve, poor fit] | 0.82 µM [rising, single point] |
| CN(C)/C=C1\C(=O)N(c2ccc([N+](=O)[O-])cc2)N=C1c1ccccc1 | -145 |  | 29.1 µM [falling, single point] |
| COc1ccc(OCCNc2cc(N3CCCCC3)ccc2[N+](=O)[O-])cc1 | 7.49 |  |  |
| O=C1C(NS(=O)(=O)c2ccccc2)=C(N2CCN(c3ccc(F)cc3)CC2)C(=O)c2ccccc21 | -66.8 | 2.31 µM [falling, full curve] | 6.51 µM [falling, partial curve, poor fit] |
| CCN1CCN(c2ccc(NC(=O)c3ccc([N+](=O)[O-])o3)cc2Cl)CC1 | -37.9 | 13 µM [falling, partial curve, poor fit] | 1.84 µM [falling, single point] |
| NNc1nc(-c2ccccc2)cc(-c2ccc(Br)cc2)n1 | -26.5 |  | 0.291 µM [falling, full curve] |
| CC1CCC(N2CCN(S(C)(=O)=O)CC2)CC1 (stereo unspecified) | -30.8 | 36.6 µM [falling, partial curve, poor fit] | 0.731 µM [falling, full curve] |
| Cc1ccoc1C(=O)N1CCCC(CO)(Cc2ccc(F)cc2)C1 (stereo unspecified) | -1.73 |  | 0.92 µM [falling, partial curve] |
| Cc1cc(Cl)c(OCCCn2cncn2)c(Br)c1 |  | 1.16 µM [rising, full curve] | 0.92 µM [rising, full curve] |
| CCn1cc(C(=O)N2CCN(Cc3ccc4c(c3)OCO4)CC2)c(=O)c2ccc(C)nc21 | 65 | 9.2 µM [rising, partial curve] | 6.51 µM [rising, full curve] |
| NC(=O)CC[C@H](NC(=O)OCc1ccccc1)C(=O)OCc1ccc(Cl)cc1 | -26.8 |  | 4.11 µM [rising, single point] |
| CCS(=O)(=O)Nc1cccc(C2=NN(S(=O)(=O)CC)C(c3ccccc3)C2)c1 (stereo unspecified) | 17.3 |  | 0.00411 µM [rising, full curve, poor fit] |

| Structure (SMILES) | cell number change [%] | AC50 [1] | AC50 [2] |
| --- | --- | --- | --- |
| O=C(Nc1ccc(C(=O)N2CCCc3ccccc32)cc1)c1cccs1 | -10.2 |  | 29.1 µM [falling, single point] |
| Cc1oc(-c2cc(Cl)cc(Cl)c2)cc1C(=O)NCCc1ccccc1 | 21.1 |  | 29.1 µM [rising, single point] |
| COc1ccc(CN(CC(=O)NCc2ccc(F)cc2)C(=O)CCC(=O)Nc2ccccn2)cc1 | -6.3 |  | 6.51 µM [falling, single point] |
| CCN(CC)CCCNC(=O)C1CCN(c2ncnc3c2sc2cccc(F)c23)CC1 | -10.3 |  | 0.231 µM [falling, full curve, poor fit] |
| CC(C)CNC(=O)c1cccc(NC(=O)c2ccco2)c1 | 0.852 |  |  |
| COc1ccc(CC(=O)Nc2nnc(SCC(=O)NCc3ccco3)s2)cc1OC | -26.2 |  | 2.06 µM [falling, single point] |
| CCCS(=O)(=O)Nc1ccc(-c2cn3c(n2)SCC3)cc1 | -14.7 | 2.31 µM [rising, single point] | 0.13 µM [falling, full curve, poor fit] |
| O=C(CSC1=NC(=O)C(c2ccccc2)C(=O)N1)Nc1ccccc1Cl (stereo unspecified) | -20 |  | 0.651 µM [falling, full curve] |
| Cc1nc2ccccc2c2c(N)c3ccccc3n12 |  | 6.51 µM [falling, single point] | 6.51 µM [falling, single point] |
| CC(=O)c1ccc(NC(=S)Nc2ccn(Cc3ccc(Br)cc3)n2)cc1 | -47.4 |  |  |
| Cn1c(SCC(=O)Nc2cc(Cl)cc(Cl)c2)nnc1-c1ccc2nonc2c1 | -34.7 | 14.6 µM [falling, partial curve, poor fit] | 8.2 µM [falling, partial curve, poor fit] |
| COc1ccc(N(Cc2ccccc2)S(=O)(=O)c2ccc(C)cc2)cc1 | 108 | 5.8 µM [falling, single point] | 1.84 µM [falling, partial curve] |
| Cn1c(=O)oc2cc(S(=O)(=O)Nc3ccc4c(c3)OCCO4)ccc21 | 132 | 23.1 µM [rising, partial curve] | 10.3 µM [rising, partial curve] |
| CC(C)Nc1oc(-c2cccc3ccccc23)nc1C#N | -4.39 |  | 5.17 µM [falling, full curve] |
| CC(=O)Nc1ccc(/C(C)=N/NS(=O)(=O)c2ccccc2)cc1 | 4.28 |  |  |
| COc1cc2ncc(C(=O)c3ccccc3)c(N3CCN(Cc4ccccc4)CC3)c2cc1OC | 22.2 | 0.231 µM [rising, full curve, poor fit] | 1.03 µM [rising, full curve, poor fit] |
| CCOCCCNC(=O)c1ccc(OC2CCN(C(C)=O)CC2)c(OC)c1 | -16 |  | 0.58 µM [falling, single point] |
| CSc1ccccc1NC(=O)c1ccccc1N(C)S(C)(=O)=O | 0.787 |  | 10.3 µM [falling, single point] |
| CCCCn1c(N)c(N(C)C(=O)C2CCCC2)c(=O)[nH]c1=O | -14.5 |  | 0.092 µM [falling, full curve, poor fit] |

| Structure (SMILES) | cell number change [%] | AC50 [1] | AC50 [2] |
| --- | --- | --- | --- |
| Cc1ccc(Sc2ccc(NC(=O)CCl)cc2)cc1C | -60.8 | 29.1 µM [falling, single point] | 23.1 µM [falling, single point] |
| Cc1nn(-c2ccccn2)c2c1C(=O)C(Br)CC2 (stereo unspecified) |  |  | 0.0517 µM [falling, full curve, poor fit] |
| C=CCn1c(SCC(=O)c2ccc(OC)cc2)nnc1-c1cc2cccc(OC)c2o1 | -36.2 | 18.4 µM [falling, partial curve, poor fit] |  |
| CCCc1cc(C(=O)NNC(=S)NCC)c2ccccc2n1 |  |  | 0.0651 µM [rising, full curve, poor fit] |
| CCOC(=O)CNC(=S)N1CCn2c(nc3ccccc32)C1 | -13.2 | 0.092 µM [falling, full curve, poor fit] | 0.058 µM [falling, full curve, poor fit] |
| N#CCCN(C(=O)CN1CCN(S(=O)(=O)c2ccc3c(c2)OCCO3)CC1)c1ccc(F)cc1 | 5.98 |  | 0.0651 µM [falling, full curve, poor fit] |
| COc1ccccc1C(=O)NCC(=O)NCc1cc(=O)n(C)c(=O)n1C | 19.5 |  |  |
| Cc1ccc2nc3c(c(C(=O)OCC(=O)N(C)C4CCS(=O)(=O)C4)c2c1)CCCC3 (stereo unspecified) | 25.9 |  | 20.6 µM [rising, single point] |
| O=C(CNC(=O)c1ccc(Cl)cc1)OCCN1C(=O)c2ccccc2C1=O | 6.64 |  |  |
| Cc1cc(C)c(-c2cc(NC(=O)COC(=O)c3ccc(NC(=O)CC#N)cc3)n(-c3ccccc3)n2)cc1C | 5.86 |  |  |
| CCc1nc(SCC(=O)Nc2ccccc2OC)n[nH]1 | -5.26 |  | 0.398 µM [rising, single point] |
| Cc1sc2nc(C(C)C)oc(=O)c2c1C | -27 |  |  |
| CCC(Sc1nc(=O)cc(N)n1-c1ccccc1)C(=O)Nc1cc(C)on1 (stereo unspecified) | -10.7 |  | 0.291 µM [falling, full curve, poor fit] |
| CC(C)C1Oc2ccccc2N(CC(=O)N(Cc2ccccn2)CC2CCCO2)C1=O (stereo unspecified) | 5.36 |  |  |
| N#CCCN(C(=O)COC(=O)C1CCN(S(=O)(=O)c2ccc3c(c2)OCCO3)CC1)c1ccccc1 | -12.8 |  | 6.51 µM [falling, single point] |
| CCc1cccc(OCCCn2ccnc2)c1 | -83.3 | 5.17 µM [falling, partial curve] |  |
| CC(C)(C)c1cc(NC(=O)Nc2ccc(Cl)cc2Cl)no1 | -38.7 | 29.1 µM [falling, single point] | 29.1 µM [falling, single point] |
| COC(=O)CCN(C(=O)c1cccc([N+](=O)[O-])c1)c1ccccn1 | -14.5 | 0.517 µM [falling, single point] |  |

Look-ups from the results shown:
Entry for CCc1nc(SCC(=O)Nc2ccccc2OC)n[nH]1 under AC50 [2]: 0.398 µM [rising, single point]
Entry for CC(C)C1Oc2ccccc2N(CC(=O)N(Cc2ccccn2)CC2CCCO2)C1=O (stereo unspecified) under cell number change [%]: 5.36
Entry for COc1ccccc1C(=O)NCC(=O)NCc1cc(=O)n(C)c(=O)n1C under cell number change [%]: 19.5
